Experimental data from PubChem BioAssay (EPA / NIEHS).
For part of these data: The hits were mostly taken out for another list; the other results follow. Inconclusive results are not listed. The list shows a part of the results, in another mix than the full data. Active and inactive are the calls of the source. How the source made its calls, unless noted: active means hit-call score of the fitted dose curve at least 0.9, where 1 is the maximum; inactive means score below 0.9.

Amino acid sequences for entries named in this document (tags omitted). A change or cut given only in a name is not applied to a line headed by its entry.
UniProt P16581: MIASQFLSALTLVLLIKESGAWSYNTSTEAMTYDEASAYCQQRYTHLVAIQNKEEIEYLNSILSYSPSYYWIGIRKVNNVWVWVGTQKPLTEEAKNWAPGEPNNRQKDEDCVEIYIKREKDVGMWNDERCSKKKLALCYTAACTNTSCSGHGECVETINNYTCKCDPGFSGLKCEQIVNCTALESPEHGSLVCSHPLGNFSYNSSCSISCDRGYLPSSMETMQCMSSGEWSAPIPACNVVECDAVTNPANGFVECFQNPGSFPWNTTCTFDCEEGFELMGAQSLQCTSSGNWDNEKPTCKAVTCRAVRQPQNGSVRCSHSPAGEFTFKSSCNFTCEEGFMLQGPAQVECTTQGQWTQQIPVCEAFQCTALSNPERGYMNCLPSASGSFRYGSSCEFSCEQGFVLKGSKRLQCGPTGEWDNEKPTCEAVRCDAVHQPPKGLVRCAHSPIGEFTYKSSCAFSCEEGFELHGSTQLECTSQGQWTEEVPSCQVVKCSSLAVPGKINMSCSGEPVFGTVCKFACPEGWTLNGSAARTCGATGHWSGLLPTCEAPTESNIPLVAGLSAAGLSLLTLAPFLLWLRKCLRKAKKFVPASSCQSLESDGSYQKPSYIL
UniProt P11473: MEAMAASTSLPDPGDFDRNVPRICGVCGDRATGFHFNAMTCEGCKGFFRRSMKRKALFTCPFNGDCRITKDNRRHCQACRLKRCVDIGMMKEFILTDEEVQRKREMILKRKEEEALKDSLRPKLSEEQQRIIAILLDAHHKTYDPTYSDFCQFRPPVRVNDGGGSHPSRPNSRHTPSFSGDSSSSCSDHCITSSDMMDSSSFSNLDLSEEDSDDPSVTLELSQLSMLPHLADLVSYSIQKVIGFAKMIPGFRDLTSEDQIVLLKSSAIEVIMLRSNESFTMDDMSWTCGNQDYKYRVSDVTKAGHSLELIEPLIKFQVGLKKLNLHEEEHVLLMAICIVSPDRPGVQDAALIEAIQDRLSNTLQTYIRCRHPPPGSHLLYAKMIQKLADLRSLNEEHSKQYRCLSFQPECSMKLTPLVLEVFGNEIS
UniProt P19838: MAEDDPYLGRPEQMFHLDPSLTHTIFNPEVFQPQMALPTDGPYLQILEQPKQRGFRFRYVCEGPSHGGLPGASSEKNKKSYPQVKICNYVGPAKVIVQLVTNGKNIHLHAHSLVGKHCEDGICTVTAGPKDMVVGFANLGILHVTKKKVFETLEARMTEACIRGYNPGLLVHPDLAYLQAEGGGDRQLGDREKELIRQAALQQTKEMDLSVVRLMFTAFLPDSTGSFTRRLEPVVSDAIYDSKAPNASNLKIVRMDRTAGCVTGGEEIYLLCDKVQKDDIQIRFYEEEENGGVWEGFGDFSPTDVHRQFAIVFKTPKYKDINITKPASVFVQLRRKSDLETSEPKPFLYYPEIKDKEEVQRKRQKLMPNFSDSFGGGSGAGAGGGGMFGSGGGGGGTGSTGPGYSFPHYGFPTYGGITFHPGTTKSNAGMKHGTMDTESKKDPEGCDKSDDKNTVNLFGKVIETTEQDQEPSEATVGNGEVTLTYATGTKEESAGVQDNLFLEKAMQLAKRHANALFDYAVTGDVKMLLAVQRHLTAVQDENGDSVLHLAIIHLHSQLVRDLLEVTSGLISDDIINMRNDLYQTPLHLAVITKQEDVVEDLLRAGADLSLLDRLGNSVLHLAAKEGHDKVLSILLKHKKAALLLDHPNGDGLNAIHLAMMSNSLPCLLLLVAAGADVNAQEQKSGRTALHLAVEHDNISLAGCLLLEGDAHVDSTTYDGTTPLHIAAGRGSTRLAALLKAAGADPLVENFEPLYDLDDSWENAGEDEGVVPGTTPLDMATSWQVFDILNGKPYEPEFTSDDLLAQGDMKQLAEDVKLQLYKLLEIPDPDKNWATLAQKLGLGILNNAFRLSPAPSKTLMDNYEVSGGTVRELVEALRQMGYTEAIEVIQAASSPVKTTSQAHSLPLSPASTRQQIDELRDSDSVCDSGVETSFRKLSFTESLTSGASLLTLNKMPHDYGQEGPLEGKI
UniProt P21452, whole entry, looked up: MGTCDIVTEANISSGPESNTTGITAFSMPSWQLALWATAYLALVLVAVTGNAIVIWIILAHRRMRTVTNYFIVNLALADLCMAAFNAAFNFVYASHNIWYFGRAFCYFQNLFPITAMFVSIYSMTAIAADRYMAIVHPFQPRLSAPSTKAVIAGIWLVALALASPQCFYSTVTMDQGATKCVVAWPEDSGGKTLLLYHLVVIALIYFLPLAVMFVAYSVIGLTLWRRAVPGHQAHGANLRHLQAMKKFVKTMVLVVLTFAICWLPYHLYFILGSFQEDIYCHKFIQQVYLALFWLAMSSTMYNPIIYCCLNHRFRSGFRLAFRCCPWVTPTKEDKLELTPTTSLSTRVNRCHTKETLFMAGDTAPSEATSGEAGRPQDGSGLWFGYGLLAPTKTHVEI

How the values were obtained:
[1] = BSK_3C_SRB: Viability Assessment in the BioMAP Diversity Plus: 3C Assay (AID 2283023); details: primary human endothelial cells (HUVEC);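 further: cells read 24 h after compound dosing; fitted both ways against DMSO so a hit may be signal rise or drop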
How it was run: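 HUVEC, 24 h post-dose; 10% TCA fix, 0.1% SRB stain, A560 nm. Bidirectional curve fit vs DMSO negative control.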

[2] = read-out: Interferon-gamma inducible Protein 10 (IP10), CXCL10 (gene 3627); assay: BSK_BE3C_IP10: BioMAP Diversity Plus: BE3C Assay for Interferon-gamma inducible Protein 10 (IP10) Biomarker Activity (AID 2283034); details: actives raise or lower the signal; primary human bronchial epithelial cells
How it was run: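 Primary human bronchial epithelial cells, with IP-10 measured by ELISA 24 hours after chemical dosing. Bidirectional fit against DMSO; cytotoxicity checked by SRB total protein staining in parallel cultures.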

[3] = read-out: Monokine induced gamma interferon (MIG), CXCL9 (gene 4283); assay: BSK_CASM3C_MIG: BioMAP Diversity Plus: CASM3C Assay for Monokine induced gamma interferon (MIG) Biomarker Activity (AID 2283048); details: actives raise or lower the signal; primary human coronary artery smooth muscle cells;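 further: MIG protein level measured by ELISA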
[4] = BSK_MyoF_SRB: Viability Assessment in the BioMAP Diversity Plus: MyoF Assay (AID 2284267); details: primary human lung fibroblasts;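 further: total protein by SRB absorbance in parallel cultures as cytotoxicity measure; cells assessed 24 h after compound addition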
How it was run: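 Human lung fibroblasts, 24 h after chemical dosing; total protein measured by 0.1% sulforhodamine B staining after 10% TCA fixation, read at 560 nm, fitted relative to DMSO baseline.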

[5] = read-out: Interleukin-8 (IL8), CXCL8 (gene 3576); assay: BSK_3C_IL8: BioMAP Diversity Plus: 3C Assay for Interleukin-8 (IL8) Biomarker Activity (AID 2283020); details: actives raise or lower the signal; primary human endothelial cells (HUVEC)
How it was run: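 Primary human umbilical vein endothelial cells were dosed for 24 h. IL-8 was quantified by ELISA and fitted bidirectionally against DMSO. Cytotoxicity was assessed in parallel cultures by SRB staining at 560 nm.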

[6] = BSK_3C_Vis: BioMAP Diversity Plus: 3C Assay for Morphology Visualization (AID 2283025); details: primary human endothelial cells (HUVEC);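 further: light microscopy image of cell morphology used as background control; fitted both ways so gain or loss versus DMSO counts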
How it was run: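 Human umbilical vein endothelial cell morphology was inspected by light microscopy 24 h after chemical dosing; scored bidirectionally relative to DMSO.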

[7] = read-out: E-selectin (Homo sapiens) (UniProt P16581); assay: BSK_3C_Eselectin: BioMAP Diversity Plus: 3C Assay for Eselectin Biomarker Activity (AID 2283015); details: actives raise or lower the signal; primary human endothelial cells (HUVEC)
How it was run: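 HUVEC, 3C stimulation; compound exposure 24 h; E-selectin by ELISA; gain- or loss-of-signal fitted bidirectionally vs DMSO baseline.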

[8] = read-out: Human Leukocyte Antigen - DR isotype (HLADR), HLA-DRA (gene 3122); assay: BSK_CASM3C_HLADR: BioMAP Diversity Plus: CASM3C Assay for Human Leukocyte Antigen - DR isotype (HLADR) Biomarker Activity (AID 2283043); details: actives raise or lower the signal; primary human coronary artery smooth muscle cells;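 further: cell-surface HLA-DR protein level quantified by ELISA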
[9] = biological target: human Vitamin D Receptor (VDR), VDR (gene 7421) (UniProt P11473); assay: ATG_VDR_TRANS: Attagene TRANS-FACTORIAL HepG2 Assay for human Vitamin D Receptor (VDR) (AID 2283022; active means hit-call score of the fitted dose curve at least 0.9, where 1 is the maximum)
How it was run: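 RT-PCR/capillary electrophoresis read-out of reporter mRNA induction in transiently transfected HepG2; 24 h dosing; chimeric NR-Gal4 (TRANS format); gain-of-signal fit against DMSO baseline.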

[10] = read-out: Cytochrome P450 (CYP2B6), CYP2B6 (gene 1555); assay: LTEA_HepaRG_CYP2B6: Life Technologies and Expression Analysis (LTEA) Assay for Cytochrome P450 (CYP2B6) using HepaRG (AID 2283481); details: actives raise or lower the signal; mRNA level, 48 h
How it was run: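 Read-out is CYP2B6 mRNA by TaqMan qRT-PCR, normalized to three housekeeping genes and fitted bidirectionally against 0.5% DMSO baseline. Human HepaRG cells received test chemicals for 48 h, top concentration 100 uM, half-log dilutions.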

[11] = read-out: Nuclear factor NF-kappa-B p105 subunit (Homo sapiens) (UniProt P19838); assay: LTEA_HepaRG_NFKB1: Life Technologies and Expression Analysis (LTEA) Assay for Nuclear Factor Kappa B Subunit 1 (NFKB1) using HepaRG (AID 2283521); details: actives raise or lower the signal; mRNA level, 48 h;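 further: TaqMan qRT-PCR transcript normalised to ACTB GAPDH and POLR2A housekeeping genes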
How it was run: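 Differentiated human HepaRG cells in serum-free induction medium with 0.5% DMSO were exposed for 48 h to eight half-log concentrations, top 100 uM, in duplicate. NFKB1 mRNA measured by Fluidigm TaqMan qRT-PCR, normalised to ACTB, GAPDH and POLR2A; bidirectional fit versus DMSO.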

[12] = Tanguay_ZF_120hpf_TR_legacy: (Legacy) Oregon State University Tanguay Lab 120 Hour Post-fertilization zebrafish Assay for Touch Response (AID 2283667; active means hit-call score of the fitted dose curve at least 0.9, where 1 is the maximum)
[13] = read-out: Human Leukocyte Antigen - DR isotype (HLADR), HLA-DRA (gene 3122); assay: BSK_3C_HLADR: BioMAP Diversity Plus: 3C Assay for Human Leukocyte Antigen - DR isotype (HLADR) Biomarker Activity (AID 2283019); details: actives raise or lower the signal; primary human endothelial cells (HUVEC)
How it was run: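 HUVEC, 3C stimulation, 24 h post-dose; HLA-DR by ELISA; bidirectional curve fit vs DMSO baseline; gain or loss of signal scored.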

[14] = read-out: Intercellular Adhesion Molecule 1 (ICAM1), ICAM1 (gene 3383); assay: BSK_KF3CT_ICAM1: BioMAP Diversity Plus: KF3CT Assay for Intercellular Adhesion Molecule 1 (ICAM1) Biomarker Activity (AID 2283067); details: actives raise or lower the signal; primary human keratinocytes with fibroblasts
How it was run: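 ELISA readout of ICAM-1; KF3CT human skin co-culture (keratinocytes + foreskin fibroblasts), 24 h post-dose; gain/loss fit vs DMSO baseline.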

[15] = biological target: human Neurokinin, NK2 Receptor, TACR2 (gene 6865) (UniProt P21452); assay: NVS_GPCR_hNK2: NovaScreen (NVS) G Protein-Coupled Receptor Assay for human Neurokinin, NK2 Receptor (AID 2283278; active means hit-call score of the fitted dose curve at least 0.9, where 1 is the maximum;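 further: actives reduce bound radioligand signal relative to DMSO baseline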)
[16] = read-out: Insulin Like Growth Factor 1 (IGF1), IGF1 (gene 3479); assay: LTEA_HepaRG_IGF1: Life Technologies and Expression Analysis (LTEA) Assay for Insulin Like Growth Factor 1 (IGF1) using HepaRG (AID 2283506); details: actives raise or lower the signal; mRNA level, 48 h
How it was run: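 Differentiated HepaRG cells in serum-free induction medium, exposed 48 h in duplicate to 8 half-log concentrations up to 100 uM in 0.5% DMSO. IGF1 mRNA by Fluidigm qRT-PCR, normalised to ACTB, GAPDH and POLR2A.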

[17] = read-out: Potassium channel subfamily K member 1 (KCNK1), KCNK1 (gene 3775); assay: LTEA_HepaRG_KCNK1: Life Technologies and Expression Analysis (LTEA) Assay for Potassium channel subfamily K member 1 (KCNK1) using HepaRG (AID 2283511); details: actives raise or lower the signal; mRNA level, 48 h
How it was run: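 Gain or loss of KCNK1 mRNA is the read-out, quantified by qRT-PCR against three housekeeping genes after 48 h chemical treatment of human HepaRG liver cells. Concentrations ran from 100 uM downward in half-log steps, vehicle 0.5% DMSO.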

[18] = Tanguay_ZF_120hpf_EYE_legacy: (Legacy) Oregon State University Tanguay Lab 120 Hour Post-fertilization zebrafish Assay for Eye Malformation (AID 2283636; active means hit-call score of the fitted dose curve at least 0.9, where 1 is the maximum)
How it was run: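 Read-out is binary presence or absence of eye malformation, scored by brightfield microscopy at 120 hpf. Single larvae were exposed from 6 hpf in embryo medium containing 0.64% DMSO, with DMSO as baseline.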

[19] = ArunA_NOG_NucleusCount: ArunA Biomedical's Neurite Outgrowth (NOG) Assay for Nucleus Count (AID 2283756; active means hit-call score of the fitted dose curve at least 0.9, where 1 is the maximum)
How it was run: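 Human H9-derived differentiated neurons were exposed for 48 h right after seeding. Hoechst-stained nuclei gated by size and intensity were counted by automated high-content imaging as viable neurons. Loss of signal vs DMSO.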

[20] = ACEA_AR_antagonist_AUC_viability: ACEA Biosciences xCELLigence Real-Time Cell Analysis on Androgen Receptor Antagonism for Viability (AID 2283776; active means hit-call score of the fitted dose curve at least 0.9, where 1 is the maximum;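 further: area under impedance growth curve at 80 h after dosing as viability; hits lower the growth signal relative to DMSO meaning cytotoxicity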)
How it was run: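 22Rv1 human prostate cancer cells were seeded on electrode plates, monitored overnight, then exposed to eight 1:4 dilutions from 100 uM final. Impedance-based growth kinetics at 80 h gave an AUC viability endpoint normalized to DMSO.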

SMILES: Clc1ccc(Nc2nnc(Cc3ccncc3)c3ccccc23)cc1
- outcome [1]: inactive
- outcome [2]: inactive
- outcome [3]: inactive
- outcome [4]: inactive

SMILES: OCCOCCOCCO
- outcome [5]: inactive

SMILES: CC(C)(c1cc(Br)c(OCCO)c(Br)c1)c1cc(Br)c(OCCO)c(Br)c1
- AC50 [6]: active: 14.5 µM

SMILES: CC(=O)C1(C)CC2=C(CCCC2(C)C)CC1C (stereo unspecified)
- AC50 [7]: active: 10.1 µM
- AC50 [8]: active: 12.4 µM

SMILES: O=P(OC(CCl)CCl)(OC(CCl)CCl)OC(CCl)CCl
- outcome [9]: inactive
- AC50 [10]: active: 86.5 µM
- outcome [11]: inactive
- AC50 [12]: active: 32.8 µM

SMILES: O=c1c(O)c(-c2ccc(O)c(O)c2)oc2cc(O)cc(O)c12
- AC50 [13]: active: 13.3 µM
- AC50 [8]: active: 14.9 µM
- AC50 [14]: active: 12 µM
- outcome [15]: inactive
- AC50 [16]: active: 74.6 µM
- outcome [17]: inactive
- outcome [18]: inactive
- AC50 [19]: active: 5.49 µM
- AC50 [20]: active: 12.8 µM
